± gives the standard deviation of the averaged measurements. Differences between knockout arms are mostly noise. Where a SMILES comes first, the peptide text is derived from it. The star is where a group is joined. Cbz = O=C(OCc1ccccc1)*
Test system: MDA-MB-231
Assay: relative cell number vs DMSO control (72 h) (% of DMSO); higher = less growth inhibition (more cells)
Protocol: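 QMAP-Seq: a pool of 5 breast cancer cell lines (ZR-75-1, SKBR3, HCC-38, MDA-MB-231, BT-20), each carrying 12 doxycycline-inducible Cas9 sgRNA perturbations (11 knockouts plus non-targeting sgNT), was treated with compounds for 72 h at four 10-fold doses (10 nM-10 uM or 1 nM-1 uM range). Barcodes were amplified and sequenced, and cell number was interpolated from 293T spike-in standard curves. The result is expressed as % of the median of DMSO wells. Two biological replicates.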

[1] = sgRNA knockout: sgATF3, 1000 nM
[2] = sgRNA knockout: sgATF3, 10000 nM
[3] = sgRNA knockout: sgATF4, 1000 nM
[4] = sgRNA knockout: sgATF4, 10000 nM
[5] = sgRNA knockout: sgATF6, 1000 nM
[6] = sgRNA knockout: sgATF6, 10000 nM
[7] = sgRNA knockout: sgATG7, 1000 nM
[8] = sgRNA knockout: sgATG7, 10000 nM
[9] = sgRNA knockout: sgERN1, 1000 nM
[10] = sgRNA knockout: sgERN1, 10000 nM
[11] = sgRNA knockout: sgHSF1, 1000 nM
[12] = sgRNA knockout: sgHSF1, 10000 nM
[13] = sgRNA knockout: sgHSF2, 1000 nM
[14] = sgRNA knockout: sgHSF2, 10000 nM
[15] = sgRNA knockout: sgKEAP1, 100 nM
[16] = sgRNA knockout: sgKEAP1, 1000 nM
[17] = sgRNA knockout: sgKEAP1, 10000 nM
[18] = sgRNA knockout: sgNFE2L2, 10 nM
[19] = sgRNA knockout: sgNFE2L2, 100 nM
[20] = sgRNA knockout: sgNFE2L2, 1000 nM
[21] = sgRNA knockout: sgNFE2L2, 10000 nM
[22] = sgRNA knockout: sgSLC35F2, 10 nM
[23] = sgRNA knockout: sgSLC35F2, 100 nM
[24] = sgRNA knockout: sgSLC35F2, 1000 nM
[25] = sgRNA knockout: sgSLC35F2, 10000 nM
[26] = sgRNA knockout: sgXBP1, 1000 nM
[27] = sgRNA knockout: sgXBP1, 10000 nM

## Cc1cc2c(F)c(Oc3ncnn4cc(OC[C@@H](C)O)c(C)c34)ccc2[nH]1 [Brivanib]
sgRNA knockout: sgATF3, 10 nM
  relative cell number: 108 ± 21
sgRNA knockout: sgATF3, 100 nM
  relative cell number: 94.7 ± 53
[1]
  relative cell number: 96.5 ± 14
[2]
  relative cell number: 64.1 ± 13
sgRNA knockout: sgATF4, 10 nM
  relative cell number: 107 ± 22
sgRNA knockout: sgATF4, 100 nM
  relative cell number: 63.8 ± 16
[3]
  relative cell number: 103 ± 23
[4]
  relative cell number: 73.4 ± 19
sgRNA knockout: sgATF6, 10 nM
  relative cell number: 100 ± 15
sgRNA knockout: sgATF6, 100 nM
  relative cell number: 99.3 ± 9.1
[5]
  relative cell number: 96.8 ± 1.6
[6]
  relative cell number: 64.4 ± 16
sgRNA knockout: sgATG7, 10 nM
  relative cell number: 104 ± 14
sgRNA knockout: sgATG7, 100 nM
  relative cell number: 90.7 ± 38
[7]
  relative cell number: 90.3 ± 2.2
[8]
  relative cell number: 64.04 ± 0.59
sgRNA knockout: sgERN1, 10 nM
  relative cell number: 122 ± 57
sgRNA knockout: sgERN1, 100 nM
  relative cell number: 90.2 ± 9.4
[9]
  relative cell number: 109 ± 14
[10]
  relative cell number: 71.7 ± 16
sgRNA knockout: sgHSF1, 10 nM
  relative cell number: 114 ± 15
sgRNA knockout: sgHSF1, 100 nM
  relative cell number: 67.9 ± 4.4
[11]
  relative cell number: 99 ± 12
[12]
  relative cell number: 62.7 ± 12
sgRNA knockout: sgHSF2, 10 nM
  relative cell number: 85 ± 13
sgRNA knockout: sgHSF2, 100 nM
  relative cell number: 97.8 ± 28
[13]
  relative cell number: 88.8 ± 6.6
[14]
  relative cell number: 57.7 ± 8
sgRNA knockout: sgKEAP1, 10 nM
  relative cell number: 104 ± 17
[15]
  relative cell number: 90.6 ± 9.5
[16]
  relative cell number: 106 ± 27
[17]
  relative cell number: 53.8 ± 7.6
[18]
  relative cell number: 111 ± 18
[19]
  relative cell number: 81.6 ± 25
[20]
  relative cell number: 112 ± 16
[21]
  relative cell number: 68.3 ± 9.7
[22]
  relative cell number: 99.3 ± 33
[23]
  relative cell number: 92.5 ± 14
[24]
  relative cell number: 97.7 ± 14
[25]
  relative cell number: 46 ± 12
sgRNA knockout: sgXBP1, 10 nM
  relative cell number: 111 ± 24
sgRNA knockout: sgXBP1, 100 nM
  relative cell number: 81.7 ± 3.3
[26]
  relative cell number: 114 ± 5.4
[27]
  relative cell number: 73.9 ± 15

## OCCn1cc(-c2ccc3c(c2)CC/C3=N\O)c(-c2ccncc2)n1 [GDC0879]
sgRNA knockout: sgATF3, 10 nM
  relative cell number: 94.4 ± 26
sgRNA knockout: sgATF3, 100 nM
  relative cell number: 100 ± 31
[1]
  relative cell number: 100 ± 8.2
[2]
  relative cell number: 74.5 ± 7.8
sgRNA knockout: sgATF4, 10 nM
  relative cell number: 104 ± 20
sgRNA knockout: sgATF4, 100 nM
  relative cell number: 98.8 ± 33
[3]
  relative cell number: 136 ± 27
[4]
  relative cell number: 112 ± 7.9
sgRNA knockout: sgATF6, 10 nM
  relative cell number: 98.047 ± 0.0079
sgRNA knockout: sgATF6, 100 nM
  relative cell number: 100 ± 10
[5]
  relative cell number: 107 ± 15
[6]
  relative cell number: 121 ± 6.9
sgRNA knockout: sgATG7, 10 nM
  relative cell number: 106 ± 5.8
sgRNA knockout: sgATG7, 100 nM
  relative cell number: 98.6 ± 8
[7]
  relative cell number: 93.9 ± 20
[8]
  relative cell number: 89.6 ± 1.3
sgRNA knockout: sgERN1, 10 nM
  relative cell number: 117 ± 10
sgRNA knockout: sgERN1, 100 nM
  relative cell number: 112 ± 7.3
[9]
  relative cell number: 91.6 ± 26
[10]
  relative cell number: 88.2 ± 4.6
sgRNA knockout: sgHSF1, 10 nM
  relative cell number: 99.2 ± 16
sgRNA knockout: sgHSF1, 100 nM
  relative cell number: 105 ± 11
[11]
  relative cell number: 100 ± 6.6
[12]
  relative cell number: 106 ± 26
sgRNA knockout: sgHSF2, 10 nM
  relative cell number: 115 ± 3.1
sgRNA knockout: sgHSF2, 100 nM
  relative cell number: 103 ± 11
[13]
  relative cell number: 104 ± 7.9
[14]
  relative cell number: 93.9 ± 10
sgRNA knockout: sgKEAP1, 10 nM
  relative cell number: 98.3 ± 6.8
[15]
  relative cell number: 110 ± 12
[16]
  relative cell number: 102 ± 0.69
[17]
  relative cell number: 85.6 ± 5.1
[18]
  relative cell number: 87.7 ± 14
[19]
  relative cell number: 101 ± 20
[20]
  relative cell number: 91 ± 19
[21]
  relative cell number: 72.2 ± 12
[22]
  relative cell number: 122 ± 12
[23]
  relative cell number: 109 ± 4.5
[24]
  relative cell number: 108 ± 36
[25]
  relative cell number: 84.8 ± 25
sgRNA knockout: sgXBP1, 10 nM
  relative cell number: 95.8 ± 5.7
sgRNA knockout: sgXBP1, 100 nM
  relative cell number: 102.7 ± 0.3
[26]
  relative cell number: 102 ± 2.5
[27]
  relative cell number: 85.2 ± 3.1

## CC(C)C[C@@H](C=O)NC(=O)[C@H](CC(C)C)NC(=O)[C@H](CC(C)C)NC(=O)OCc1ccccc1 [MG132] (Cbz-Leu-Leu-Leu-aldehyde)
sgRNA knockout: sgATF3, 10 nM
  relative cell number: 96.5 ± 4.3
sgRNA knockout: sgATF3, 100 nM
  relative cell number: 89.8 ± 12
[1]
  relative cell number: 10.9 ± 2.8
[2]
  relative cell number: 9.37 ± 0.31
sgRNA knockout: sgATF4, 10 nM
  relative cell number: 97.8 ± 8.9
sgRNA knockout: sgATF4, 100 nM
  relative cell number: 92.6 ± 14
[3]
  relative cell number: 7.49 ± 0.22
[4]
  relative cell number: 11.5 ± 8.6
sgRNA knockout: sgATF6, 10 nM
  relative cell number: 86.5 ± 17
sgRNA knockout: sgATF6, 100 nM
  relative cell number: 103 ± 2.3
[5]
  relative cell number: 11.5 ± 2.1
[6]
  relative cell number: 11 ± 1.4
sgRNA knockout: sgATG7, 10 nM
  relative cell number: 87.5 ± 5.6
sgRNA knockout: sgATG7, 100 nM
  relative cell number: 94.4 ± 13
[7]
  relative cell number: 8.15 ± 1.8
[8]
  relative cell number: 8.71 ± 1
sgRNA knockout: sgERN1, 10 nM
  relative cell number: 128 ± 14
sgRNA knockout: sgERN1, 100 nM
  relative cell number: 97.6 ± 3.8
[9]
  relative cell number: 7.66 ± 0.83
[10]
  relative cell number: 5.29 ± 2.8
sgRNA knockout: sgHSF1, 10 nM
  relative cell number: 96.9 ± 16
sgRNA knockout: sgHSF1, 100 nM
  relative cell number: 87.1 ± 14
[11]
  relative cell number: 7.98 ± 1.9
[12]
  relative cell number: 10.4 ± 2
sgRNA knockout: sgHSF2, 10 nM
  relative cell number: 111 ± 26
sgRNA knockout: sgHSF2, 100 nM
  relative cell number: 78.6 ± 17
[13]
  relative cell number: 7.64 ± 0.76
[14]
  relative cell number: 7.72 ± 1.2
sgRNA knockout: sgKEAP1, 10 nM
  relative cell number: 82.7 ± 12
[15]
  relative cell number: 95 ± 22
[16]
  relative cell number: 11.1 ± 1.7
[17]
  relative cell number: 9.24 ± 2.1
[18]
  relative cell number: 90.6 ± 20
[19]
  relative cell number: 102 ± 33
[20]
  relative cell number: 9.76 ± 2
[21]
  relative cell number: 10.2 ± 2.5
[22]
  relative cell number: 97 ± 11
[23]
  relative cell number: 116 ± 30
[24]
  relative cell number: 10.9 ± 3.9
[25]
  relative cell number: 8.08 ± 2.2
sgRNA knockout: sgXBP1, 10 nM
  relative cell number: 108 ± 5.3
sgRNA knockout: sgXBP1, 100 nM
  relative cell number: 95.1 ± 23
[26]
  relative cell number: 8.31 ± 0.7
[27]
  relative cell number: 9.17 ± 1.4
